From PubChem BioAssay AID540256 (National Center for Advancing Translational Sciences (NCATS), 2011)
The whole screen tested about 300,000 compounds, of which about 3,700 (1.2%) were called active. This list was built around the results that the source calls inconclusive (neither active nor inactive); the mix of calls is not that of the screen. Calls come from the whole dose curve; tested in HEK293 cells. Potencies beside an inconclusive call are fits to weak or partial responses and may not hold up.
% is set by controls: 0 for no effect and ±100 for the full control effect; potency is the fitted concentration of half-maximal effect.

Assay: qHTS for Inhibitors of binding or entry into cells for Lassa Virus; note: nearly all actives have a fitted effect of over 50% in size
Settings: Lassa virus pseudotype entry inhibition, cell reporter; activity change, negative = inhibition: at 37.9 µM (top of the series) unless noted
With `O=S(=O)(N=S(N1CCCCC1)N1CCCCC1)c1ccccc1` the Potency was inconclusive: 29.1 µM [activator, single point].
In the case of `COc1ccc(CCCc2nnc(SCC(=O)N/N=C\c3ccc(O)c(OC)c3)o2)cc1C`, the Potency is reported as inconclusive: 11.2 µM [inhibitor, partial curve].
In the case of `CCCC(c1nnnn1C(C)(C)C)N1CCN(C(=O)c2ccco2)CC1` (stereo not drawn), the Potency is reported as “inactive”.
For `Cn1/c(=N/NC(=O)c2cccc(OC(F)F)c2)sc2ccccc21`, the Potency was inconclusive: 7.31 µM [inhibitor, partial curve, poor fit].
In the case of `Cc1cccc(NC(=S)NCc2cccs2)c1`, the Potency is reported as “inactive”.
With `O=C(NCCc1c[nH]c2ccccc12)C(=O)NCC1CCCO1` (stereo not drawn) the activity change, negative = inhibition was inconclusive: 13.5% [activator].
For `O=C(Nc1ccccc1N1CCCC1)c1ccc(Br)o1`, the Potency was inconclusive: 2.31 µM [activator, partial curve, poor fit].
In the case of `Cc1ccc(N(C(C)C(=O)Nc2c(C)n(C)n(-c3ccccc3)c2=O)S(C)(=O)=O)cc1C` (stereo not drawn), the Potency is reported as “inactive”.
For `Cc1cccc(-c2nc(CN3CCN(C(=O)C4CCCO4)CC3)cs2)c1` (stereo not drawn), the Potency was inconclusive: 0.112 µM [inhibitor, full curve, poor fit].
In the case of `Cc1ccc2nc(N(Cc3cccnc3)C(=O)Cc3ccccc3)sc2c1`, the Potency is reported as inconclusive: 35.5 µM [inhibitor, single point].
In the case of `Cc1nn(-c2ccccc2C(=O)O)c(=O)c2ccccc12`, the Potency is reported as “inactive”.
For `O=C(Cn1cc(C(=O)C(F)(F)F)c2ccccc21)NCc1ccco1`, the Potency was “inactive”.
In the case of `CCC1=NN(C(=O)c2ccc([N+](=O)[O-])cc2)C(O)(c2ccccc2)C1` (stereo not drawn), the Potency is reported as inconclusive: 10 µM [inhibitor, partial curve, poor fit].
In the case of `CC(C)Oc1cccc(C(=O)NC(=S)Nc2ccccc2N2CCOCC2)c1`, the Potency is reported as “inactive”.
With `Cc1cc(N)n(-c2cc(C)c3ccccc3n2)n1` the Potency was inconclusive: 12.6 µM [inhibitor, single point].
With `O=C(OCC(=O)c1cccc2ccccc12)c1ccc(CO)cc1` the Potency was inconclusive: 35.5 µM [inhibitor, single point].
For `Cn1c2ccccc2c2c(C(=O)N3CCN(c4ccccc4)CC3)cn(C3CCCC3)c(=O)c21`, the Potency was inconclusive: 22.4 µM [inhibitor, single point].
For `COc1ccccc1CNCC(=O)Nc1ccc(N2CCOCC2)cc1`, the Potency was “inactive”.
For `Cc1nc(Cl)nc(N(C)c2ccccc2)c1[N+](=O)[O-]`, the Potency was “inactive”.
For `COC(=O)C1=C(c2ccccc2)c2ccccc2S(=O)(=O)N1CC(=O)Nc1cccc(C(C)=O)c1`, the Potency was inconclusive: 35.5 µM [inhibitor, single point].
In the case of `COc1ccc(N2CCN(C(CNC(=O)OCc3ccccc3)c3ccco3)CC2)cc1` (stereo not drawn), the Potency is reported as inconclusive: 8.2 µM [inhibitor, partial curve].
In the case of `Cc1ccc(CCNC(=O)c2ccc(NC(=O)N3CC(C)Sc4ccccc43)cc2)cc1` (stereo not drawn), the Potency is reported as inconclusive: 5.62 µM [inhibitor, single point].
For `Cc1ccc(CCc2nnc(SCC(=O)Nc3cc(Cl)ccc3Cl)n2-c2ccccc2)o1`, the Potency was inconclusive: 6.31 µM [inhibitor, full curve].
In the case of `Cc1[nH]c(N=Nc2ccccc2)nc1N=Nc1ccccc1`, the Potency is reported as inconclusive: 11.2 µM [inhibitor, partial curve, poor fit].
In the case of `CCc1cc(=O)oc2c(C)c(OCC(=O)NCCCN3CCOCC3)ccc12`, the Potency is reported as inconclusive: 35.5 µM [activator, single point].
In the case of `Cc1ccc(S(=O)(=O)N(Cc2cccc(C(F)(F)F)c2)C(=O)N2CCN(C)CC2)cc1`, the Potency is reported as inconclusive: 0.1 µM [inhibitor, full curve, poor fit].
In the case of `O=C(O)C(Oc1ccc2c3c(c(=O)oc2c1)CCC3)c1ccccc1` (stereo not drawn), the Potency is reported as “inactive”.
With `CC(C)(C)c1cc(Cl)ccc1OCCn1ccnc1` the Potency was inconclusive: 35.5 µM [inhibitor, single point].
With `COc1ccc(/C=N/NC(=S)NCc2ccccc2)cc1OC` the Potency was inconclusive: 1.26 µM [inhibitor, full curve].
With `Cc1cccc(NC(=O)c2cccc([N+](=O)[O-])c2O)c1C` the Potency was inconclusive: 14.1 µM [inhibitor, single point].
In the case of `COc1ccc(Cl)cc1S(=O)(=O)NC(C)C(=O)NCc1ccccn1` (stereo not drawn), the Potency is reported as inconclusive: 1.12 µM [inhibitor, full curve, poor fit].
In the case of `COc1cccc(C(=O)NC2CC3CCCC(C2)N3S(=O)(=O)c2ccccc2)c1` (stereo not drawn), the Potency is reported as inconclusive: 8.91 µM [inhibitor, partial curve].
In the case of `O=C(Nc1ccccc1C(=O)N1CCN(Cc2ccccc2)CC1)c1ccccc1`, the Potency is reported as “inactive”.
In the case of `Cc1onc(-c2ccccc2)c1C(=O)NNC(=S)NC(=O)c1ccc2c(c1)OCO2`, the Potency is reported as inconclusive: 35.5 µM [inhibitor, single point].
In the case of `COC(=O)c1ccc(C(=O)OC)c(NC(=O)CSc2nnc(-c3ccccc3Cl)o2)c1`, the Potency is reported as inconclusive: 1 µM [activator, single point].
For `O=C(NCC(c1ccco1)N1CCN(c2ccccc2)CC1)OCc1ccccc1` (stereo not drawn), the Potency was inconclusive: 4.61 µM [inhibitor, partial curve].
In the case of `CCOc1ccc(OCC)c(NC(=O)C2CCCN(C(=O)c3ccc(Cl)cc3)C2)c1` (stereo not drawn), the Potency is reported as “inactive”.
For `COC(=O)c1ccc2c(c1)C(NC(C)=O)CCc1cc(OC)c(OC)c(OC)c1-2` (stereo not drawn), the Potency was inconclusive: 0.447 µM [inhibitor, full curve, poor fit].
In the case of `CC(=O)NC(Cc1ccc(N(CCCl)CCCl)cc1)C(=O)O` (stereo not drawn), the Potency is reported as “inactive”.
In the case of `O=C1NC(=Nc2cccc(O)c2)S/C1=C\c1cccnc1`, the Potency is reported as inconclusive: 25.1 µM [inhibitor, single point].
For `Cc1ccc(NC(=S)Nc2cc(C(=O)O)ccc2N2CC3CC(C2)c2cccc(=O)n2C3)cc1C` (stereo not drawn), the Potency was inconclusive: 15.8 µM [inhibitor, single point].
With `CN(C(=S)NC(=O)c1ccc(Cl)cc1)C1CCCCC1` the Potency was “inactive”.
For `CCc1ccc2oc(C(=O)N3CCN(c4ccccc4OC)CC3)cc(=O)c2c1`, the Potency was inconclusive: 5.62 µM [inhibitor, single point].
With `CCOC(=O)c1c(S(=O)(=O)N2CCC(C(=O)Nc3ccccc3OC)CC2)c(C)n(CC)c1C` the Potency was “inactive”.
In the case of `c1ccc(Cn2c(SCc3cn4cccnc4n3)nnc2-c2ccco2)cc1`, the Potency is reported as “inactive”.
For `COC(=O)C1=C(C)N(C)C(=O)NC1c1cccc2ccccc12` (stereo not drawn), the Potency was inconclusive: 0.398 µM [inhibitor, partial curve, poor fit].
With `CN(c1ccc(C(=O)NCCC2=CCCCC2)cc1)S(C)(=O)=O` the Potency was inconclusive: 17.8 µM [inhibitor, single point].
With `Cc1ccc(NC(=O)CCn2c(=O)c3cccn3c3ccccc32)c(Cl)c1` the Potency was inconclusive: 8.91 µM [inhibitor, partial curve].
For `Cc1nc2ccccn2c1-c1csc(Nc2ccc(C(=O)O)cc2)n1`, the Potency was inconclusive: 1.78 µM [inhibitor, full curve, poor fit].
With `COc1ccc(N(CC(=O)NCCSc2ccccn2)S(C)(=O)=O)cc1` the Potency was “inactive”.
For `CC1(C)CC(=O)C=C(NNC(=O)c2ccccc2)C1`, the Potency was “inactive”.
With `O=C(c1cc(COc2ccc3ncccc3c2)on1)N1CCC[C@H]1CO` the Potency was inconclusive: 11.2 µM [inhibitor, partial curve].
With `O=C1C=C(O)c2cccc3cccc1c23` the Potency was “inactive”.
For `CN1CCN(c2ccc(NC(=O)CSc3ccccc3)cc2F)CC1`, the Potency was inconclusive: 0.058 µM [activator, full curve].
In the case of `CCn1c(SCC(=O)c2cc(C)n(-c3ccc(C(=O)OC)cc3)c2C)nnc1-c1cccnc1`, the Potency is reported as inconclusive: 11.6 µM [inhibitor, partial curve, poor fit].
With `NC/C=C\C(=O)O` the Potency was inconclusive: 6.51 µM [activator, partial curve, poor fit].
With `CCOC(=O)/C=c1\s/c(=C\c2c(OCC)ccc3ccccc23)c(=O)n1CC(=O)NCC1CCCO1` (stereo not drawn) the Potency was inconclusive: 12.6 µM [inhibitor, partial curve, poor fit].
In the case of `Oc1cccc(/C=N/Nc2cc(N3CCOCC3)nc(N3CCOCC3)n2)c1`, the Potency is reported as inconclusive: 8.91 µM [inhibitor, partial curve].
For `O=C(NCc1ccco1)c1cc2ccccc2c(=O)o1`, the Potency was inconclusive: 11.2 µM [activator, partial curve].
For `COc1ccc(NC(=S)Nc2cc(C)[nH]n2)cc1Cl`, the Potency was inconclusive: 1.41 µM [inhibitor, partial curve, poor fit].
For `CC(C)(C)SCCNC(=O)CSc1ccccc1`, the Potency was inconclusive: 0.092 µM [activator, full curve, poor fit].
For `CC(OC(=O)C1CCC1)C(=O)Nc1cc(Cl)cc(Cl)c1` (stereo not drawn), the Potency was inconclusive: 1 µM [inhibitor, single point].
For `COc1ccc(CNC(=O)COc2ccc(F)cc2)cc1`, the Potency was inconclusive: 35.5 µM [inhibitor, single point].
In the case of `c1cncc(-c2noc(-c3ccco3)n2)c1`, the Potency is reported as “inactive”.
With `CCC(C(=O)NCCc1c[nH]c2ccc(C)cc12)c1ccccc1` (stereo not drawn) the Potency was inconclusive: 0.794 µM [inhibitor, full curve].
With `COc1ccc(C(=O)O/N=C(\N)c2ccncc2)cc1OC` the Potency was inconclusive: 35.5 µM [inhibitor, single point].
With `COc1ccccc1NC(=O)C(=O)NCCC1CCCCN1S(=O)(=O)c1ccc(F)cc1` (stereo not drawn) the Potency was inconclusive: 17.8 µM [inhibitor, partial curve, poor fit].
For `COC(=O)c1ccccc1SCC(=O)Nc1ccc(N2CCOCC2)cc1`, the Potency was inconclusive: 14.1 µM [inhibitor, single point].
